Experimental data reported in PubChem BioAssay AID602313 (National Center for Advancing Translational Sciences (NCATS), 2012).
In all, about 390,000 compounds went through this assay and about 760 (0.19%) were called active. The shares of active, inactive and inconclusive entries below differ from those in the screen. Calls follow the shape of the dose curve; as a rule, active = well fitted inhibition curve with a large enough effect; inconclusive = small, poorly fitted or top-dose-only effect; inactive = flat fitted curve, though single readings scatter. Potencies beside an inconclusive call are fits to weak or partial responses and may not hold up.
Potency is read from the fitted curve at half-maximal effect.

Assay: qHTS for Inhibitors of Vif-A3F Interactions: qHTS; also: nearly all actives have a fitted effect of over 65% in size; as to activity, negative = active: % of control where 0% means no effect
Details: HeLa A3F-eYFP + Vif (tagged APOBEC3F with the HIV-1 protein that degrades it), YFP fluorescence increase; series mostly up to 46.1 µM; activity, negative = active: at the top concentration
Method in brief: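 Fluorescence increase (Ex 488/Em 500-530) after overnight compound treatment at 37 deg C flags inhibition of Vif-driven A3F-eYFP loss in stable HeLa A3F-eYFP/Vif cells seeded overnight beforehand.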
In the case of `O=C(Nc1cccnc1)Nc1ccc(Cl)cc1Cl`, the Potency is reported as inconclusive: 3.16 µM [inhibitor, single point].
With `COc1ccc(S(=O)(=O)N(CC(=O)N/N=C/c2ccc(C(=O)O)cc2)Cc2ccccc2)cc1OC` the Potency was inconclusive: 3.55 µM [inhibitor, single point].
In the case of `CC(=O)c1ccc(NC(=S)Nc2ccc(N3CCOCC3)cc2)cc1`, the “activity, negative = active” value is reported as inactive: -2.05%.
For `CC(Oc1cccc(Cl)c1)C(=O)Nc1ccccc1N1CCCC1` (centres undefined), the Potency was inconclusive: 35.5 µM [inhibitor, single point].
For `C#CC1CN(Cc2ccccc2)CC(C#C)N1C` (centres undefined), the “activity, negative = active” value was inactive: -11.4%.
For `Cn1c(Cc2cccs2)nnc1SCC(=O)Nc1ccccc1`, the Potency was inconclusive: 0.316 µM [inhibitor, full curve, poor fit].
For `COc1ccc(-c2c(C#N)c(N)nc3c2CCc2ccccc2-3)cc1OC`, the “activity, negative = active” value was inactive: -2.97%.
For `CN(C)CCCN(C(=O)c1ccco1)c1nc2cc3c(cc2s1)OCO3`, the “activity, negative = active” value was inactive: -2.67%.
With `COc1ccc(CNC(=O)Cn2c(=O)nc(-c3ccccc3F)c3cc(Cl)ccc32)cc1` the “activity, negative = active” value was inactive: 4.43%.
For `COc1cc2c(-c3ccccc3O)nc3c(c(C)nn3-c3ccccc3)c2cc1OC`, the Potency was “inactive”.
With `Cc1nn(CCOc2ccccc2)c(=O)n1-c1ccccc1F` the Potency was inconclusive: 6.31 µM [inhibitor, single point].
In the case of `CCOC(=O)c1nc2nc(-c3cccs3)cc(C(F)(F)F)n2n1`, the “activity, negative = active” value is reported as inactive: -3.3%.
With `COc1ccc(S(=O)(=O)N(CC(=O)NCC2CCCO2)Cc2ccccc2)cc1` (centres undefined) the Potency was inconclusive: 6.31 µM [inhibitor, single point].
For `COc1cc(C2C(C#N)=C(N)Oc3cc(N(C)C)ccc32)cc2c1OCO2` (centres undefined), the Potency was inconclusive: 22.4 µM [inhibitor, partial curve, poor fit].
In the case of `COc1ccc(C2CC2/C(=N/O)c2ccccn2)cc1` (centres undefined), the “activity, negative = active” value is reported as inactive: 0.0238%.
In the case of `CCN(CC)c1ccc2cc(-c3nc(-c4ccc(Cl)cc4Cl)cs3)c(=O)oc2c1`, the Potency is reported as active: 7.08 µM.
For `CCOC(=O)c1ccc(Nc2nc3nonc3nc2Nc2cccc(C)c2C)cc1`, the “activity, negative = active” value was inactive: 1.63%.
With `Cc1ccc(C)c(NC(=S)N(CCc2ccncc2)C(C)C)c1` the Potency was inconclusive: 15.8 µM [inhibitor, partial curve, poor fit].
With `CCn1c(SCC(=O)N2CCN(c3ccc(Cl)cc3)CC2)nc2ccccc2c1=O` the Potency was inconclusive: 5.62 µM [inhibitor, single point].
With `Oc1ccc2ccccc2c1/C=N/Nc1nnc(-c2ncc[nH]2)c2ccccc12` the Potency was inconclusive: 22.4 µM [inhibitor, single point].
With `CC(Sc1nnc(COc2ccccc2)n1-c1ccccc1)C(=O)O` (centres undefined) the Potency was inconclusive: 35.5 µM [inhibitor, single point].
For `COc1ccc(S(=O)(=O)N2CCOC23CCN(S(=O)(=O)c2c(C)cc(C)cc2C)CC3)cc1`, the Potency was inconclusive: 22.4 µM [inhibitor, single point].
In the case of `C[C@]12CCC[C@H](O1)c1c(cc3c(c1O)C(=O)c1c(O)cc(O)cc1C3=O)O2`, the Potency is reported as active: 8.91 µM.
In the case of `CN(c1ccccc1)S(=O)(=O)c1ccc2[nH]c(=O)oc2c1`, the Potency is reported as inconclusive: 20 µM [inhibitor, partial curve, poor fit].
In the case of `COC(=O)C1=C(CCc2ccccc2)NC(=O)NC1c1ccc(C#N)cc1` (centres undefined), the “activity, negative = active” value is reported as inactive: 3.09%.
For `O=C(N=Nc1c(O)[nH]c2ccccc12)c1cc(-c2ccc(F)cc2)n[nH]1`, the Potency was inconclusive: 35.5 µM [inhibitor, single point].
For `CC1CCc2c(sc(NC(=O)COC(=O)c3ccc(NC(=O)CC#N)cc3)c2C#N)C1` (centres undefined), the Potency was inconclusive: 35.5 µM [inhibitor, single point].
With `Cc1nn(-c2ccc(F)cc2)c(Cl)c1/C=C/C(=O)OCC(=O)Nc1c(F)c(F)c(F)c(F)c1F` the Potency was inconclusive: 2 µM [inhibitor, partial curve, poor fit].
In the case of `Cc1cc(-c2nc3ccccc3s2)ccc1N`, the “activity, negative = active” value is reported as inactive: 1.17%.
In the case of `COC(=O)/C=C1\N/C(=N/c2nc(C)c3cc(OC)ccc3n2)NC1=O`, the Potency is reported as inconclusive: 22.4 µM [inhibitor, single point].
With `Cn1c(SCC(=O)Nc2ccc(Cl)cc2)nc(O)cc1=O` the Potency was inconclusive: 7.08 µM [inhibitor, partial curve].
With `O=[N+]([O-])c1cccc(CN2CCN(S(=O)(=O)Cc3ccccc3)CC2)c1` the Potency was inconclusive: 5.62 µM [inhibitor, single point].
In the case of `Clc1ccc(Nc2nc3cccnc3s2)cc1`, the Potency is reported as inconclusive: 0.562 µM [inhibitor, full curve, poor fit].
For `CCOc1ccc(CNC(=O)c2ccccc2NC(=O)c2nsc3ccccc23)cc1`, the Potency was active: 7.94 µM.
For `O=C(c1c[nH]c2ccccc12)N1CCN(c2ccccc2)CC1`, the Potency was inconclusive: 11.2 µM [inhibitor, partial curve, poor fit].
For `Cc1ccc2nc(-c3ccccn3)[nH]c2c1`, the Potency was inconclusive: 35.5 µM [inhibitor, single point].
In the case of `CC1=NN(c2nc(-c3ccc(C)cc3)cs2)C(=O)C1N=Nc1ccccc1O` (centres undefined), the Potency is reported as inconclusive: 5.62 µM [inhibitor, single point].
In the case of `CCOc1cc(/C=C2/C(=N)N3N=C(C)SC3=NC2=O)ccc1OS(=O)(=O)c1ccc(C)cc1`, the “activity, negative = active” value is reported as inactive: -0.22%.
For `N#CC1=C(N)N2C(=C(C#N)C1c1cccc(Br)c1)Nc1ccccc12` (centres undefined), the Potency was inconclusive: 17.8 µM [inhibitor, partial curve, poor fit].
For `COc1cc(/C=C2\C(=O)ON=C2c2ccccc2)cc(Br)c1O`, the “activity, negative = active” value was inactive: -14%.
With `CC(C)(C)c1ccc(C(=O)NC2(C(F)(F)F)NC(=O)N(CCc3ccccc3)C2=O)cc1` (centres undefined) the Potency was inconclusive: 15.8 µM [inhibitor, single point].
With `CCCCOc1ccc(/C=C/C2=CC(C)(C)NC(=S)N2)cc1OCC` the Potency was inconclusive: 3.16 µM [inhibitor, full curve].
For `O=C(CCN1C(=O)/C(=C/c2cccs2)SC1=S)Nc1ccc(O)cc1`, the Potency was inconclusive: 15.8 µM [inhibitor, partial curve, poor fit].
For `Clc1ccc2c(N/N=C/c3ccccc3Br)ccnc2c1`, the Potency was inconclusive: 7.94 µM [inhibitor, partial curve, poor fit].
With `CS(=O)(=O)c1cccc(-c2nnc(NC(=O)c3ccc4c(c3)OCCO4)o2)c1` the Potency was inconclusive: 17.8 µM [inhibitor, single point].
For `CCn1cc(C(=O)NCC2CCCO2)c(=O)c2cc(S(=O)(=O)N3CCCCCC3)ccc21` (centres undefined), the Potency was inconclusive: 2.82 µM [inhibitor, single point].
With `COc1ccc2c(c1)CCc1sc(NC(=O)c3ccc(Br)cc3)nc1-2` the “activity, negative = active” value was inactive: -2.96%.
For `CC1CCN(c2ccccc2NC(=S)NC(=O)c2ccco2)CC1`, the Potency was inconclusive: 12.6 µM [inhibitor, partial curve, poor fit].
With `Cc1ccc(NC(=O)CN2C(=O)S/C(=C/c3ccc(-c4cc(C(=O)O)ccc4C)o3)C2=O)cc1C` the “activity, negative = active” value was inactive: -6.17%.
With `CCC(O)(CC)C(=O)N/N=C/c1cc(Br)cc(Br)c1O` the “activity, negative = active” value was inactive: -0.632%.
With `CC1=CC(=O)Nc2ncccc2O1` the Potency was inconclusive: 10 µM [inhibitor, partial curve, poor fit].
In the case of `Cc1ccc(NC(=O)c2ccc(C(C)(C)C)cc2)cc1-n1cnnn1`, the Potency is reported as inconclusive: 35.5 µM [inhibitor, single point].
In the case of `CCCCCC(=O)N1C[C@@H](n2cc(C3CC3)nn2)[C@H](O)C[C@@H]1c1ccc(C)cc1`, the “activity, negative = active” value is reported as inactive: -11.2%.
With `CC(=O)Oc1ccc(-n2c(=O)c3ccccc3c3ccccc3c2=O)cc1` the “activity, negative = active” value was inactive: 0.257%.
In the case of `CCOC(=O)c1c(NC(=O)C(NCCN(C)C)c2ccccc2)sc2c1CCCC2` (centres undefined), the Potency is reported as inconclusive: 5.62 µM [inhibitor, single point].
With `O=S(=O)(c1ccc(NC(=S)NCCC(c2ccccc2)c2ccccc2)cc1)N1CCOCC1` the “activity, negative = active” value was inactive: -7.73%.
With `COc1cccc(-n2nnnc2S(C)(=O)=O)c1` the “activity, negative = active” value was inactive: 2.28%.
In the case of `CN(C)c1ccc2c(c1)OC(N)=C(C#N)C2c1cccc(F)c1` (centres undefined), the Potency is reported as active: 22.4 µM.
For `COc1cc2nc(Nc3cccc(C)c3)nc(N)c2cc1OC`, the Potency was inconclusive: 25.1 µM [inhibitor, single point].
With `O=C(N=Nc1c(O)[nH]c2ccc(Cl)cc12)c1cc(-c2cccs2)nc2ccccc12` the Potency was inconclusive: 6.31 µM [inhibitor, full curve, poor fit].
For `C[n+]1c(-c2ccccc2)cc2c(=Cc3ccc([N+](=O)[O-])cc3)c3ccccc3n21`, the “activity, negative = active” value was inactive: 3.16%.
For `CC(C)CCNC(=O)C1CC2Cn3c(nc4cc(Cl)c(Cl)cc43)C2N1C` (centres undefined), the “activity, negative = active” value was inactive: 0.497%.
In the case of `O=C(NC1C/C(=N/O)c2cc3c(cc21)OCO3)C(F)(F)F` (centres undefined), the Potency is reported as inconclusive: 12.6 µM [inhibitor, partial curve].
With `Cn1c(=O)c(C(=O)COC(=O)c2cc(C3CC3)nc3ccccc23)c(N)n(Cc2ccccc2)c1=O` the Potency was inconclusive: 11.2 µM [inhibitor, single point].
In the case of `O=c1[nH]c2ccc(NC(=S)NC3CCCCC3)cc2[nH]1`, the “activity, negative = active” value is reported as inactive: 1.89%.
For `CCOC(=O)c1nn(-c2ccc(OCC)cc2)c2nc(-c3ccco3)c(C#N)c(=O)n12`, the Potency was inconclusive: 12.6 µM [inhibitor, partial curve, poor fit].
For `Cn1c(N)c(C(=O)CSc2nnc(Cc3cccs3)n2C2CC2)c(=O)n(C)c1=O`, the Potency was inconclusive: 6.31 µM [inhibitor, single point].
For `O=C(COc1ccc(Br)cc1Br)NC(=O)NC1CCCC1`, the Potency was inconclusive: 35.5 µM [inhibitor, single point].
With `Cc1cc(C)nc(NS(=O)(=O)c2ccc(NC(=O)c3ccc4c(c3)OCCO4)cc2)n1` the Potency was inconclusive: 10 µM [inhibitor, partial curve, poor fit].
